PubChem BioAssay AID1159578 | Peter MacCallum Cancer Centre, 2015

Screen: 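siRNA pools altering how lymphatic endothelial cells close a scratch wound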 (primary screen)
Cell system: human lymphatic endothelial cells
Knock-down reagent: siRNA pool against human genes, 40 nM
Time to read-out: 48 h after transfection
Detection: 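Cells stained with dye and imaged after a scratch; covered wound area and nuclei counted, duplicates averaged, migration set against mock wells and turned into a robust z-score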
Scale: migration robust z-score: higher = faster migration into the scratch; migration relative to mock: higher = more scratch area covered than mock; nuclei per well: higher = more cells in the well
Hit rule: 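Pools averaging fewer than 3300 nuclei are never called; remaining pools count as changed when migration robust z lies outside -2 to 2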
Meaning of the calls: active = migration changed; inactive = no migration change, or too few cells
This is a random part of about 18,000 deposited reagents. Over the whole deposit, about 1,030 (5.7%) are marked active. 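Inactive calls also include pools with fewer than 3300 nuclei, whose migration was not assessed.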 Raw values vary from plate to plate and are shown uncorrected. No sequences are given here.

gene knocked down	migration robust z-score	migration class with cell-count check	migration relative to mock	nuclei per well, duplicate mean	outcome
PAGR1 (PAXIP1 associated glutamate rich protein 1)	-1.27	migration z between -2 and 2; enough cells	0.55	5980	inactive
OR4P4 (olfactory receptor family 4 subfamily P member 4)	0.72	migration z between -2 and 2; enough cells	1.08	5437	inactive
KSR1 (kinase suppressor of ras 1)	-1.38	migration z between -2 and 2; enough cells	0.54	3632	inactive
ITGA9 (integrin subunit alpha 9)	0.29	migration z between -2 and 2; enough cells	0.86	6292	inactive
BCL6B (BCL6B transcription repressor)	1.06	migration z between -2 and 2; enough cells	1.01	6446	inactive
RNASE10 (ribonuclease A family member 10 (inactive))	-0.3	migration z between -2 and 2; enough cells	0.81	6708	inactive
PCDH15 (protocadherin related 15)	-0.02	migration z between -2 and 2; enough cells	0.8	4367	inactive
AMN1 (antagonist of mitotic exit network 1 homolog)	2.66	migration z above 2; enough cells	1.57	6892	active
TCP11 (t-complex 11)	-0.26	migration z between -2 and 2; enough cells	0.82	6066	inactive
DEFB112 (defensin beta 112)	0.02	migration z between -2 and 2; enough cells	0.89	4514	inactive
GALR1 (galanin receptor 1)	-1.01	migration z between -2 and 2; enough cells	0.61	5690	inactive
REV3L (REV3 like, DNA directed polymerase zeta catalytic subunit)	0.54	migration z between -2 and 2; enough cells	0.91	5258	inactive
CPA4 (carboxypeptidase A4)	-0.62	migration z between -2 and 2; enough cells	0.68	5410	inactive
C2orf78 (chromosome 2 open reading frame 78)	0.38	migration z between -2 and 2; enough cells	0.98	6968	inactive
PRSS16 (serine protease 16)	0.88	migration z between -2 and 2; enough cells	0.97	6056	inactive
SLC35F1	1.09	migration z between -2 and 2; enough cells	1.17	6736	inactive
LMO1 (LIM domain only 1)	-0.29	migration z between -2 and 2; enough cells	0.75	5366	inactive
SLIT3 (slit guidance ligand 3)	-1.23	migration z between -2 and 2; enough cells	0.57	4581	inactive
MRPL51 (mitochondrial ribosomal protein L51)	0.93	migration z between -2 and 2; enough cells	1.12	6452	inactive
MB21D2 (Mab-21 domain containing 2)	1.58	migration z between -2 and 2; enough cells	1.29	6330	inactive
DDAH1 (dimethylarginine dimethylaminohydrolase 1)	-1.5	migration z between -2 and 2; enough cells	0.52	5723	inactive
PRKAA2 (protein kinase AMP-activated catalytic subunit alpha 2)	0.13	migration z between -2 and 2; enough cells	0.83	5450	inactive
UGT1A4 (UDP glucuronosyltransferase family 1 member A4)	-0.05	migration z between -2 and 2; enough cells	0.8	5018	inactive
FGF10 (fibroblast growth factor 10)	-0.65	migration z between -2 and 2; enough cells	0.68	4562	inactive
TNFRSF17 (TNF receptor superfamily member 17)	-0.89	migration z between -2 and 2; enough cells	0.66	4690	inactive
FTH1 (ferritin heavy chain 1)	0.4	migration z between -2 and 2; enough cells	0.98	7114	inactive
RNF180 (ring finger protein 180)	0.93	migration z between -2 and 2; enough cells	0.99	5563	inactive
ANXA10 (annexin A10)	-1.1	migration z between -2 and 2; enough cells	0.6	5425	inactive
TYRO3 (TYRO3 protein tyrosine kinase)	-3.25	migration z below -2; enough cells	0.18	3636	active
TNXB (tenascin XB)	1.2	migration z between -2 and 2; enough cells	1.04	5292	inactive

Next part, starting with the last 3 of the part before.
gene knocked down	migration robust z-score	migration class with cell-count check	migration relative to mock	nuclei per well, duplicate mean	outcome
ANXA10 (annexin A10)	-1.1	migration z between -2 and 2; enough cells	0.6	5425	inactive
TYRO3 (TYRO3 protein tyrosine kinase)	-3.25	migration z below -2; enough cells	0.18	3636	active
TNXB (tenascin XB)	1.2	migration z between -2 and 2; enough cells	1.04	5292	inactive
SENP6 (SUMO specific peptidase 6)	0.86	migration z between -2 and 2; enough cells	0.97	5903	inactive
TDRD12 (tudor domain containing 12)	-1.79	migration z between -2 and 2; enough cells	0.42	6156	inactive
FBXO25 (F-box protein 25)	-0.6	migration z between -2 and 2; enough cells	0.69	5417	inactive
LINC00471 (long independently transcribed non-coding RNA 471)	-0.44	migration z between -2 and 2; enough cells	0.77	6132	inactive
CHM (CHM Rab escort protein)	-3.4	migration z below -2; enough cells	0.15	4096	active
BFSP1 (beaded filament structural protein 1)	-0.76	migration z between -2 and 2; enough cells	0.69	5274	inactive
COL19A1 (collagen type XIX alpha 1 chain)	-1.15	migration z between -2 and 2; enough cells	0.59	4858	inactive
GPR68 (G protein-coupled receptor 68)	0.54	migration z between -2 and 2; enough cells	0.91	4243	inactive
NOA1 (nitric oxide associated 1)	-2.21	migration z below -2; enough cells	0.31	5552	active
EWSR1 (EWS RNA binding protein 1)	1.35	migration z between -2 and 2; enough cells	1.06	3956	inactive
CHD1L (chromodomain helicase DNA binding protein 1 like)	0.18	migration z between -2 and 2; enough cells	0.84	4812	inactive
RBAK (RB associated KRAB zinc finger)	-1.73	migration z between -2 and 2; enough cells	0.44	6886	inactive
EIF2AK1 (eukaryotic translation initiation factor 2 alpha kinase 1)	0	migration z between -2 and 2; enough cells	0.8	5638	inactive
EXTL2 (exostosin like glycosyltransferase 2)	0.46	migration z between -2 and 2; enough cells	0.9	6460	inactive
TTC17 (tetratricopeptide repeat domain 17)	-1.48	migration z between -2 and 2; enough cells	0.51	4678	inactive
ADD3 (adducin 3)	-0.72	migration z between -2 and 2; enough cells	0.7	5898	inactive
PFKL (phosphofructokinase, liver type)	1.35	migration z between -2 and 2; enough cells	1.06	6474	inactive
TAOK3 (TAO kinase 3)	0.16	migration z between -2 and 2; enough cells	0.84	5930	inactive
TM7SF3 (transmembrane 7 superfamily member 3)	1.36	migration z between -2 and 2; enough cells	1.25	6406	inactive
CD8A (CD8 subunit alpha)	-2.8	migration z below -2; enough cells	0.17	4358	active
RNF168 (ring finger protein 168)	-0.72	migration z between -2 and 2; enough cells	0.66	4488	inactive
RFXAP (regulatory factor X associated protein)	-0.96	migration z between -2 and 2; enough cells	0.62	4852	inactive
ARHGEF3 (Rho guanine nucleotide exchange factor 3)	0.34	migration z between -2 and 2; enough cells	0.98	5736	inactive
ARK2C	0.62	migration z between -2 and 2; enough cells	0.92	6302	inactive
SERPINB1 (serpin family B member 1)	0.62	migration z between -2 and 2; enough cells	0.92	6190	inactive
HDDC2 (HD domain containing 2)	0.52	migration z between -2 and 2; enough cells	1.03	4685	inactive
RANBP3 (RAN binding protein 3)	1.79	migration z between -2 and 2; enough cells	1.35	6308	inactive
